Laboratory results as given in the supplement of paper PMC10849652.
Some of the results follow.

Protein sequences, listed by entry. Tags and fused reporters are not part of them. Lines headed by an entry give the natural chain unless they say otherwise; changes in a name come on top.
UniProt Q9NRX5: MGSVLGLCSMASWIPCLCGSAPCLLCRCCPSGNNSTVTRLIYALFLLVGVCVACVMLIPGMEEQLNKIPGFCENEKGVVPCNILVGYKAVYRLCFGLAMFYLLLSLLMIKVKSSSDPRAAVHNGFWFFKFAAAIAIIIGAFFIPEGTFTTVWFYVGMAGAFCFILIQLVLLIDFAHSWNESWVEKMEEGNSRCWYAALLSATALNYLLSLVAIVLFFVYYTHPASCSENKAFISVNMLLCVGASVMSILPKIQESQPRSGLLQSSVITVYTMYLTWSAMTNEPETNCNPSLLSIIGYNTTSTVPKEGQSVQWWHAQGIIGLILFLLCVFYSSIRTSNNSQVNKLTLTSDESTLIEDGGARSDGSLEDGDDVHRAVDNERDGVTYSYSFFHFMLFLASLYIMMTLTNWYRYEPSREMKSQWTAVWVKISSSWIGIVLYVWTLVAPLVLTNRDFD
UniProt Q86TU7: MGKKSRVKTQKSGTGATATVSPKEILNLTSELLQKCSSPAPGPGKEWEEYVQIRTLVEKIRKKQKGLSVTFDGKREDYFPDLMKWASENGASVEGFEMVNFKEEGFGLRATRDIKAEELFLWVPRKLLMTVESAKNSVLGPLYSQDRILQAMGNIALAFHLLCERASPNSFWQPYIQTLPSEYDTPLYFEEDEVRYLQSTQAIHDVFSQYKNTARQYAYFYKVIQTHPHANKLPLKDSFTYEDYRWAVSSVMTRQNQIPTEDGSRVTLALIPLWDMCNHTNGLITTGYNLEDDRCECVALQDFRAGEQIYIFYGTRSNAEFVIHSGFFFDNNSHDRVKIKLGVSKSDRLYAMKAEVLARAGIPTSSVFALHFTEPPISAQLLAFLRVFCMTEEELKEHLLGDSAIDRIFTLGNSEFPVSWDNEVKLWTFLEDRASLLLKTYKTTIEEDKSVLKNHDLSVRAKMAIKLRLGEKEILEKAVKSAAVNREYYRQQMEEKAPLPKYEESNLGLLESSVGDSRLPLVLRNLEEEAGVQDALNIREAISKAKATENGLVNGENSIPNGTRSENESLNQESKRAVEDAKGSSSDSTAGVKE
UniProt Q16181: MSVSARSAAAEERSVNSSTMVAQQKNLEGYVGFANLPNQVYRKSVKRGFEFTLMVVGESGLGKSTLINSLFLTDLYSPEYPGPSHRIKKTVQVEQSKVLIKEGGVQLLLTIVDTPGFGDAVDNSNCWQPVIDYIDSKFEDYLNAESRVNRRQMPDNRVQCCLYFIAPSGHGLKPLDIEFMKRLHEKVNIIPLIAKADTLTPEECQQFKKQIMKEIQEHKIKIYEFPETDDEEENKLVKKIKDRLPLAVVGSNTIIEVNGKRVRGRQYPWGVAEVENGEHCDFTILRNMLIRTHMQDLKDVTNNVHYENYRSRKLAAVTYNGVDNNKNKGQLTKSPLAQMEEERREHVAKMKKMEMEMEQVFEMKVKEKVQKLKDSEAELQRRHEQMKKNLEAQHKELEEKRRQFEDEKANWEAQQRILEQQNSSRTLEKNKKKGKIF
UniProt Q9BWJ5: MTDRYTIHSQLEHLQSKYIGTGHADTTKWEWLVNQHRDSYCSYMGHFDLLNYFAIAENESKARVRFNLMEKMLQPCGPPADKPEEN
UniProt Q8WV19: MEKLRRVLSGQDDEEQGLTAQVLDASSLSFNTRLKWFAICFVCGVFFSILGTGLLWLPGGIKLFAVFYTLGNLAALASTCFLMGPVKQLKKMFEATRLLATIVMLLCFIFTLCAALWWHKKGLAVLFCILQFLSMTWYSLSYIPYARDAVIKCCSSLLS
UniProt Q9Y6D0, whole entry, looked up: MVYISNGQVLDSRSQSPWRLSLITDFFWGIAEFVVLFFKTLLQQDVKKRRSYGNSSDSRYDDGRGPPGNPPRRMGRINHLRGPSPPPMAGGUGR
UniProt P49908, whole entry, looked up: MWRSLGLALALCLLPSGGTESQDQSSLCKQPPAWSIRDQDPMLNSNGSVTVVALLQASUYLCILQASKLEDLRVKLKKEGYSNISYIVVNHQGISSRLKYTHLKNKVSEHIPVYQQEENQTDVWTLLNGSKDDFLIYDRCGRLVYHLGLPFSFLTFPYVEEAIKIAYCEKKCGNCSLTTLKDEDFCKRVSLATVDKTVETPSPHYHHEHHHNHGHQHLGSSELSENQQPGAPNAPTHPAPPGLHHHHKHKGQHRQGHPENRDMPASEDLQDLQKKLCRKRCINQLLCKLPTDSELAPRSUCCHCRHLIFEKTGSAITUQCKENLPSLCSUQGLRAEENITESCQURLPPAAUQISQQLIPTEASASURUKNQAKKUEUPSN
UniProt O43255: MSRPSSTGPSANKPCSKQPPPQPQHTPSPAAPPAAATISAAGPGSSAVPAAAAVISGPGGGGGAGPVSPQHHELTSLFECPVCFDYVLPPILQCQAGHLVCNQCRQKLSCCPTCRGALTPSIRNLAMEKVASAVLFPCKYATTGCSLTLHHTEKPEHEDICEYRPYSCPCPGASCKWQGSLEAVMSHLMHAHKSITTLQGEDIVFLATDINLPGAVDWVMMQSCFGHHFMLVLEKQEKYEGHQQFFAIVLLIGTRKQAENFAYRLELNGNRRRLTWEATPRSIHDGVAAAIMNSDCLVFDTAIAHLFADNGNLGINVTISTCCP
UniProt Q9UPX8: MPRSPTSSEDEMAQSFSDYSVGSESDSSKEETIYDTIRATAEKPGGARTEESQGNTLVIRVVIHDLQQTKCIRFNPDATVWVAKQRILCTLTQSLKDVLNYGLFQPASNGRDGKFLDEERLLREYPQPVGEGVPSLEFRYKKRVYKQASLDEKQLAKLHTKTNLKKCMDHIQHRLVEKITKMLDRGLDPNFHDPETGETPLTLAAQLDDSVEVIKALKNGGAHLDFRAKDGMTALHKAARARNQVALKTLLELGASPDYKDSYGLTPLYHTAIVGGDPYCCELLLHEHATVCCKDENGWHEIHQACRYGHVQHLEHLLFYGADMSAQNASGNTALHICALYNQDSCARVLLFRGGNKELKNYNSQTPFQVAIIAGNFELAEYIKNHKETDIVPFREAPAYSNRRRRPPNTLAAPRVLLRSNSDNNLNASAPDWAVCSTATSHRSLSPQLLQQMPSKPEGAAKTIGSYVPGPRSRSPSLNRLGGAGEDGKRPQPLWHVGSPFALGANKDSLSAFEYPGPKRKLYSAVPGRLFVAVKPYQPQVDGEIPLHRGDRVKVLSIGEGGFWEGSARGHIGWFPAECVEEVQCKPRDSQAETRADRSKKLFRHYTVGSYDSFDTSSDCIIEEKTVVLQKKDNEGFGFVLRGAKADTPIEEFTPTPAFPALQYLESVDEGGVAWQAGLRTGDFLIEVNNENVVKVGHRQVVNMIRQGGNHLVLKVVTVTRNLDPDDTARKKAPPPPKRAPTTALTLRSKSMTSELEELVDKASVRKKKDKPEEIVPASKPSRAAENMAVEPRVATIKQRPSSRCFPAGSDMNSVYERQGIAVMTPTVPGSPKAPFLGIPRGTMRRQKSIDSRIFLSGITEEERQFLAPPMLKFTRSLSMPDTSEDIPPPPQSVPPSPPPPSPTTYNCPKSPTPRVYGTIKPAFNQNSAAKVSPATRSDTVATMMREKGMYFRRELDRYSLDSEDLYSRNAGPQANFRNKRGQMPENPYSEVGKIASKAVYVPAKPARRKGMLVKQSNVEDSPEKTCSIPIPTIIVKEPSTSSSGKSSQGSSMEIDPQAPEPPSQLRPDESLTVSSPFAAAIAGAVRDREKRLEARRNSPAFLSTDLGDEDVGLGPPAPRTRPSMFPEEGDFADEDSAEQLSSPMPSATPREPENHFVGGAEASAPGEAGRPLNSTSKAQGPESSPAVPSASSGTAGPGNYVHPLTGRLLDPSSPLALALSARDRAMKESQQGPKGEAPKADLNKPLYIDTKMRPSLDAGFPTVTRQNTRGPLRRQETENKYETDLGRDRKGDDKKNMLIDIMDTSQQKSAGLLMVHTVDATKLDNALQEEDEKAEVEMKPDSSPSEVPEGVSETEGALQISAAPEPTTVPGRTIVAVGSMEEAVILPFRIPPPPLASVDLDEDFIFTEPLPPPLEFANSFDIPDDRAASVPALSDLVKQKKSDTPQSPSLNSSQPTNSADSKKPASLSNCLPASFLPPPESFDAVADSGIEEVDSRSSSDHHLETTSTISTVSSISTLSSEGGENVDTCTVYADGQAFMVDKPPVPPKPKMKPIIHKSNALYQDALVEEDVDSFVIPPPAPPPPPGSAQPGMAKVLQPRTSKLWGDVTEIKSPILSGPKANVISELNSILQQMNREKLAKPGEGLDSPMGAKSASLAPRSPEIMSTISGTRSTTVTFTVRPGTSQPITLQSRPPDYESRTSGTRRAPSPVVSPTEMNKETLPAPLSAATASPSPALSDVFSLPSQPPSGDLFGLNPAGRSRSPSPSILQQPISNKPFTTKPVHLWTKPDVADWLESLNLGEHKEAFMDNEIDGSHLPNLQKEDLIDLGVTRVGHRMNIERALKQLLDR
UniProt Q9P0V9: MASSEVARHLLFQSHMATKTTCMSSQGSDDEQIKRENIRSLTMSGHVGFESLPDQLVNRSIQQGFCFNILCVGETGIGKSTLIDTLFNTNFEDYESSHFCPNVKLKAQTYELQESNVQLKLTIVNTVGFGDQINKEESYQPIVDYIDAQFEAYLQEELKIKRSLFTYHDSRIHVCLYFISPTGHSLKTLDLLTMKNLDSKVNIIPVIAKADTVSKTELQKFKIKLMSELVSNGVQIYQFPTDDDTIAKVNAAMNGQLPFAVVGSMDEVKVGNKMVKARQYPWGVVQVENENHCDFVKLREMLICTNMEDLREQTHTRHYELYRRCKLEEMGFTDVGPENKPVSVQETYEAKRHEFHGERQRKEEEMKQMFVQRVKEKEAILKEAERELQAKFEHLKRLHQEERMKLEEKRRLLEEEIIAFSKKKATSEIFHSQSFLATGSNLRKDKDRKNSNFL

Legend:
Assay in all cases: log2 fold change, soluble protein after heating vs DMSO (PISA); higher = thermal stabilisation; K562 cells, 10 uM, 30 min; active = over 0.2 and 3.5 SD of the protein, either way, in both replicates (recomputed)
[1] = compound: CC1=C(C=C(C=C1)NC(=O)C2=CC(=CC=C2)C(C)(C)C#N)NC3=CC4=C(C=C3)N=CN(C4=O)C
Method in brief: (§1)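 K562 cells at 2×10^6 cells/mL were treated for 30 min with 10 μM compound, and aliquots were heated for 3 min over 48°C-58°C before pooling. Extraction used PBS with 0.5% NP-40 at 4°C, and soluble protein was the supernatant after 21,000xg for 90 min, measured by TMTpro 16plex LC-MS/MS with channel sums equalised. Thermal stability values, relative to control samples and from duplicates, are log2 fold changes.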

[2] = compound: CC1=C(C=C(C=C1)NC(=O)C2=CC(=CC=C2)N(C)C)NC(=O)C3=CC=C(C=C3)O
Method in brief: as §1

[3] = compound: CC1=CC=C(C=C1)SC2=C3C=C(SC3=CN=C2)C(=O)N
Method in brief: as §1

[4] = compound: CC1=NC(=CC=C1)C2=C(N=C(N2)C(C)(C)C)C3=CC4=NC=CN=C4C=C3
Method in brief: as §1

[5] = compound: CCCCN(Cc1ccc(C(=O)NO)cc1)C(=O)Nc1ccccc1 [Nexturastat A]
Method in brief: as §1

[6] = compound: CCCS(=O)(=O)Nc1ccc(F)c(C(=O)c2c[nH]c3ncc(-c4ccc(Cl)cc4)cc23)c1F [vemurafenib]
Method in brief: as §1

[7] = compound: CCCS(=O)(=O)Nc1ccc(F)c(C(=O)c2c[nH]c3ncc(Cl)cc23)c1F
Method in brief: as §1

[8] = compound: CCCc1cc(C)[nH]c(=O)c1CNC(=O)c1cc(-c2ccnc(N3CCN(C)CC3)c2)cc2c1cnn2C(C)C
Method in brief: as §1

[9] = compound: CCN(CC)Cc1ccc2cc(COC(=O)Nc3ccc(C(=O)NO)cc3)ccc2c1 [givinostat]
Method in brief: as §1

[10] = compound: CCN(CCCOc1ccc2c(Nc3cc(CC(=O)Nc4cccc(F)c4)[nH]n3)ncnc2c1)CCOP(=O)(O)O [barasertib]
Method in brief: as §1

[11] = compound: CC[C@@H]1C(=O)N(C)c2cnc(Nc3ccc(C(=O)NC4CCN(C)CC4)cc3OC)nc2N1C1CCCC1
Method in brief: as §1

[12] = compound: CC[C@@H]1C(=O)N(C)c2cnc(Nc3ccc(C(=O)N[C@H]4CC[C@H](N5CCN(CC6CC6)CC5)CC4)cc3OC)nc2N1C(C)C [volasertib]
Method in brief: as §1

[13] = compound: CC[C@H](C)N1C=C(C2=C(C=C(C=C21)C3=CN=C(C=C3)N4CCNCC4)C(=O)NCC5=C(C=C(NC5=O)C)C)C
Method in brief: as §1

[14] = compound: CC[C@H](C)[C@@H](C(=O)N[C@@H]([C@@H](C)O)C(=O)N[C@@H](CC(C)C)C(=O)[C@]1(CO1)C)NC(=O)[C@H]([C@@H](C)CC)N(C)C(=O)C [epoxomicin]
Method in brief: as §1

[15] = compound: CN(C)CC(=O)Nc1ccc2[nH]c(=O)c3ccccc3c2c1
Method in brief: as §1

[16] = compound: CN1C2=C(C3=C1C(=O)N(N=C3)CC4=CC(=CC=C4)N)SC(=C2)S(=O)C
Method in brief: as §1

[17] = compound: CCn1cc(-c2ccnc3[nH]c(-c4cccc(CN(C)C)c4)cc23)c(-c2ccc(NC(=O)N(C)C)cc2)n1
Method in brief: as §1

[18] = compound: CN1CCC(CNc2ccc3ncc(-c4cccc(OC(F)(F)F)c4)n3n2)CC1
Method in brief: as §1

[19] = compound: CCn1c(C(=O)N(C2CC2)C2CC2)cc2c3c(ncn3C)c(Nc3cc(C)n(C)n3)nc21
Method in brief: as §1

[20] = compound: CN(CCOC1=CC=C(C=C1)C[C@H]2C(=O)NC(=O)S2)C3=CC=CC=N3 (racemic) [rosiglitazone]
Method in brief: as §1

Measured: log2 fold change

SERINC1 (UniProt Q9NRX5)
inactive: [1] 0.044 | [2] -0.048 | [3] 0.372 | [4] -0.021 | [5] 0.053 | [6] -0.083 | [7] -0.018 | [9] 0.05 | [10] 0.002 | [11] 0.001 | [12] 0.025 | [13] -0.223 | [14] -0.034 | [15] -0.023 | [16] -0.194
active: [8] -0.874

SETD3 (UniProt Q86TU7)
inactive: [1] -0.008 | [2] 0.029 | [3] -0.01 | [4] 0.046 | [5] -0.024 | [6] 0.035 | [7] -0.01 | [8] 0.034 | [9] -0.037 | [10] 0.026 | [11] -0.017 | [12] -0.018 | [13] 0.055 | [14] -0.024 | [17] -0.002 | [15] -0.02 | [16] -0.056 | [18] 0.06

SEPTIN7 (UniProt Q16181)
inactive: [1] 0.006 | [2] 0.003 | [3] -0.022 | [4] 0.026 | [5] -0.009 | [6] 0.02 | [7] 0.035 | [8] -0.007 | [9] 0.005 | [10] 0.017 | [11] -0.019 | [12] -0.028 | [13] -0.003 | [14] 0.027 | [19] 0.014 | [17] -0.003 | [15] 0.005 | [20] 0.028 | [16] -0.097 | [18] 0.006

SF3B5 (UniProt Q9BWJ5)
inactive: [1] 0.003 | [3] 0.072 | [4] 0.111 | [5] 0.042 | [6] -0.055 | [7] -0.027 | [8] -0.009 | [9] 0.129 | [10] -0.12 | [11] 0.089 | [12] -0.14 | [13] -0.057 | [17] 0.035 | [15] 0.006 | [16] 0.082 | [18] 0.035
active: [14] 0.426

SF1 (UniProt H7BZT1)
inactive: [2] -0.188

SFT2D1 (UniProt Q8WV19)
inactive: [1] 0.053 | [2] 0.041 | [3] -0.068 | [7] 0.001 | [8] -0.114 | [11] 0.042 | [12] 0.288

SELENOK (UniProt Q9Y6D0)
inactive: [1] 0.25 | [5] -0.098 | [6] 0.137 | [8] -0.444 | [9] -0.008 | [10] -0.156 | [11] 0.283 | [13] -0.079 | [14] -0.176 | [19] 0.042 | [17] -0.041 | [15] 0.029 | [20] 0.066 | [18] -0.087

SELENOP (UniProt P49908)
inactive: [1] -0.018 | [4] 0.032 | [8] -0.144 | [9] 0.026 | [10] 0.1 | [19] 0.035 | [20] 0.097

Random excerpt: two records from the list
SF3B5 (UniProt Q9BWJ5)
inactive: [1] 0.003 | [3] 0.072 | [4] 0.111 | [5] 0.042 | [6] -0.055 | [7] -0.027 | [8] -0.009 | [9] 0.129 | [10] -0.12 | [11] 0.089 | [12] -0.14 | [13] -0.057 | [17] 0.035 | [15] 0.006 | [16] 0.082 | [18] 0.035
active: [14] 0.426

SETD3 (UniProt Q86TU7)
inactive: [1] -0.008 | [2] 0.029 | [3] -0.01 | [4] 0.046 | [5] -0.024 | [6] 0.035 | [7] -0.01 | [8] 0.034 | [9] -0.037 | [10] 0.026 | [11] -0.017 | [12] -0.018 | [13] 0.055 | [14] -0.024 | [17] -0.002 | [15] -0.02 | [16] -0.056 | [18] 0.06

More entries follow:

SIAH2 (UniProt O43255)
inactive: [2] 0.008 | [3] 0.003 | [4] -0.042 | [6] -0.129 | [7] -0.017 | [8] -0.229 | [10] -0.054 | [11] 0.011 | [12] -0.097 | [13] 0.01 | [15] -0.061 | [20] 0.036

SEPTIN5 (UniProt G3XAH0)
active: [5] -0.255
inactive: [1] -0.002 | [2] -0.046 | [3] 0.04 | [6] 0.058 | [7] 0.023 | [8] -0.009 | [9] 0.014 | [10] 0.002 | [12] 0.097 | [13] 0.074 | [14] 0.049 | [17] 0.211 | [15] 0.011 | [16] -0.079 | [18] 0.075

SHANK2 isoform 3 (UniProt Q9UPX8)
inactive: [1] 0.256 | [4] 0.018 | [5] 0.441 | [13] -0.053 | [14] -0.234

SEPTIN10 isoform 2 (UniProt Q9P0V9)
inactive: [1] -0.028 | [3] 0.074 | [5] 0.019 | [6] -0.032 | [7] 0.012 | [8] -0.039 | [9] -0.074 | [10] 0 | [11] -0.026 | [12] 0.102 | [13] -0.078 | [14] -0.065 | [19] 0.006 | [17] 0.043 | [15] -0.066 | [20] 0.003 | [16] -0.078 | [18] -0.018
